Laboratory results published in article PMC12483987.

What was measured:
Assay in all cases: EMSA
Details in all cases: EMSA/Gel-Shift kit (Beyotime) per manufacturer; unlabelled competitor 2.5- to 10-fold; pH and temperature not stated; recombinant protein; protein details: N-terminal GST (pGEX-6P-1); label: 3' biotin (F strand)
[1] = test system: GST-CiSPL3
[2] = test system: GST-CiSPL6
[3] = test system: GST-CiSPL7

Sequence: AAATGAATAATTCAGAAACTGTACGTGATGATAGAATCAATGAG (double strand) [pCiKN6 probe]
- binding result [1]: binds

Sequence: ACTCAAAAAACAAAACTATTGTACTGCCCTGTGCATGTGTGCAT (double strand) [pCiGA20ox2 probe]
- binding result [2]: binds

Sequence: GCCAAAACCATAACTACTTAGTACACAAAAAACTTTTCTGTTCG (double strand) [pCiFD probe]
- binding result [3]: binds

Construct, isoform or probe ends are uncertain for at least one entry.
